# The entries are a selection whose mix differs from that of the whole data set.
# Chains of the proteins cited; added tags and fusions are not shown. Lines headed by an entry give the natural chain unless they say otherwise; changes in a name come on top.
# UniProt Q15398: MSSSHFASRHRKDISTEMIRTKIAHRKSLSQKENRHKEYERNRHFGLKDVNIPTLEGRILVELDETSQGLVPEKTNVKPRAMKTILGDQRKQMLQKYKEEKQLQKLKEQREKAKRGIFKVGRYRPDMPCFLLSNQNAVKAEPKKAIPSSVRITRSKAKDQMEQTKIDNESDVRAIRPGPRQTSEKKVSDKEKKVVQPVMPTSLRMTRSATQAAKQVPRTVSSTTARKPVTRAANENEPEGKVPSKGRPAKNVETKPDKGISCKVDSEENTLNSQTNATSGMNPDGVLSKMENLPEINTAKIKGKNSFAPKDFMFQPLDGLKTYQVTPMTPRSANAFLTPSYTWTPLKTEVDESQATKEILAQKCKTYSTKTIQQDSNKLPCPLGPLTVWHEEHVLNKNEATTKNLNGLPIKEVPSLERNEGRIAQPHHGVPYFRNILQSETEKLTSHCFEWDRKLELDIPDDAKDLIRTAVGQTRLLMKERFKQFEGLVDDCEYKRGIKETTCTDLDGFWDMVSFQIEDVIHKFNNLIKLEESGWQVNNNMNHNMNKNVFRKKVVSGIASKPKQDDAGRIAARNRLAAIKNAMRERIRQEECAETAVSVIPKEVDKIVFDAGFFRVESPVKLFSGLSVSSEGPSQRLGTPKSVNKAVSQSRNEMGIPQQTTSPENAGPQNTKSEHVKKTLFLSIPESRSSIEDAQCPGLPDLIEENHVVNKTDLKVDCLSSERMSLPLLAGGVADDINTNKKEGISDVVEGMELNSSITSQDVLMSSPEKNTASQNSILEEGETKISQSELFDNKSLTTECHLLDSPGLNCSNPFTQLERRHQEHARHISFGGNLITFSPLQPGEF
# UniProt Q29RF7: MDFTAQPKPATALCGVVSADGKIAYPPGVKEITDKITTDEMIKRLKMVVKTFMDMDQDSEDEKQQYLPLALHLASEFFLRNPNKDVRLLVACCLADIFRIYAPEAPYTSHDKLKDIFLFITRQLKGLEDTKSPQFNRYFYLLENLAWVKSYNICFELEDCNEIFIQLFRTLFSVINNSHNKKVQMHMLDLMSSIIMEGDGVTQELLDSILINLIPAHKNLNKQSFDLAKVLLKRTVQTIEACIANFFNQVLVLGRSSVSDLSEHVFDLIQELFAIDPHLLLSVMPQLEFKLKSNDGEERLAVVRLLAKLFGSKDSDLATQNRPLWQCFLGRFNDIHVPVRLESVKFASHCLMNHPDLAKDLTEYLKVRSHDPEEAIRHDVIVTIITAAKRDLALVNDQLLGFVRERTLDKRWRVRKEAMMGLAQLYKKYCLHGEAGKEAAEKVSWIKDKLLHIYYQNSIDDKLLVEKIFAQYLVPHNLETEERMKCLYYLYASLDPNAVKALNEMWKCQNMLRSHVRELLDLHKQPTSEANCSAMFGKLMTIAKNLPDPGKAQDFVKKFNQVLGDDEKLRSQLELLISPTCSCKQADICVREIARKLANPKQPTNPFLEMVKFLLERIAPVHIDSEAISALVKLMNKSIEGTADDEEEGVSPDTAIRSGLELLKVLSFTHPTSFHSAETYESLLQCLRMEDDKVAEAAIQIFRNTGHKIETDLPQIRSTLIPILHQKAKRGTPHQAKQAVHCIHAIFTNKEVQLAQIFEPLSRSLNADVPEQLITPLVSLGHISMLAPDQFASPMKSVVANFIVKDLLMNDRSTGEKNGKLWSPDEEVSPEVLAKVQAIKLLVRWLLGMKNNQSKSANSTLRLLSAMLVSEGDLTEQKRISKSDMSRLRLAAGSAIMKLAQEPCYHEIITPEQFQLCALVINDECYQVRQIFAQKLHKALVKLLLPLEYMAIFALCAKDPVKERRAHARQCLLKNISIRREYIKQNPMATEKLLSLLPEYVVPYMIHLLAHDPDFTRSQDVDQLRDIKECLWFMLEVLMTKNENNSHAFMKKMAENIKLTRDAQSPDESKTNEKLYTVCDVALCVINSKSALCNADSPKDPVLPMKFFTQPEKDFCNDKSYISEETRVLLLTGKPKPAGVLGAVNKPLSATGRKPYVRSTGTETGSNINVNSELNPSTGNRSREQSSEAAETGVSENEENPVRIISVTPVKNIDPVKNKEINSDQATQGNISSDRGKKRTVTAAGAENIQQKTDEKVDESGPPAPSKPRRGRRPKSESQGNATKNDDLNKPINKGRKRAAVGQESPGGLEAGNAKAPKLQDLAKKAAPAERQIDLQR
# UniProt Q1KMD3: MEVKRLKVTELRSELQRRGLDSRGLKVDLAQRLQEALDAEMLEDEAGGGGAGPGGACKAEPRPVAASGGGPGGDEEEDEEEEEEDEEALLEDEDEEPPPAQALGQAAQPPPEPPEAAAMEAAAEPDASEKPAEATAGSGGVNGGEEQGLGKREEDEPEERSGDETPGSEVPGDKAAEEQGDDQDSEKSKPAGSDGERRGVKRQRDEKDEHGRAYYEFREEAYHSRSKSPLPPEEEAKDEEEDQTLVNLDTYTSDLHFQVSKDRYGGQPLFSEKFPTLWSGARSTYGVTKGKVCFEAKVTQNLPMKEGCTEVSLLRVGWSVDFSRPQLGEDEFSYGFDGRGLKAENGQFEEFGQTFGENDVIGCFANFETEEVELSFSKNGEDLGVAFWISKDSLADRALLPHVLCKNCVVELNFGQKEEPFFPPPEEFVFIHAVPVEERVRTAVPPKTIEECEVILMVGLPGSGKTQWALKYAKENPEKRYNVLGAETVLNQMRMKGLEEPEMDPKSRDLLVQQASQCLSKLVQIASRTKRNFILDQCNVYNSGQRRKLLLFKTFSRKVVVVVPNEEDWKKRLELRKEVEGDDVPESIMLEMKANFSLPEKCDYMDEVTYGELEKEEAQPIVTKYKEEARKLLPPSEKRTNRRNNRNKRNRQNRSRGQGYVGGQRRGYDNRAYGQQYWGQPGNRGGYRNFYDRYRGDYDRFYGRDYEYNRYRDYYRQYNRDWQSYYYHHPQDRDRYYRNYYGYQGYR
# UniProt Q15437: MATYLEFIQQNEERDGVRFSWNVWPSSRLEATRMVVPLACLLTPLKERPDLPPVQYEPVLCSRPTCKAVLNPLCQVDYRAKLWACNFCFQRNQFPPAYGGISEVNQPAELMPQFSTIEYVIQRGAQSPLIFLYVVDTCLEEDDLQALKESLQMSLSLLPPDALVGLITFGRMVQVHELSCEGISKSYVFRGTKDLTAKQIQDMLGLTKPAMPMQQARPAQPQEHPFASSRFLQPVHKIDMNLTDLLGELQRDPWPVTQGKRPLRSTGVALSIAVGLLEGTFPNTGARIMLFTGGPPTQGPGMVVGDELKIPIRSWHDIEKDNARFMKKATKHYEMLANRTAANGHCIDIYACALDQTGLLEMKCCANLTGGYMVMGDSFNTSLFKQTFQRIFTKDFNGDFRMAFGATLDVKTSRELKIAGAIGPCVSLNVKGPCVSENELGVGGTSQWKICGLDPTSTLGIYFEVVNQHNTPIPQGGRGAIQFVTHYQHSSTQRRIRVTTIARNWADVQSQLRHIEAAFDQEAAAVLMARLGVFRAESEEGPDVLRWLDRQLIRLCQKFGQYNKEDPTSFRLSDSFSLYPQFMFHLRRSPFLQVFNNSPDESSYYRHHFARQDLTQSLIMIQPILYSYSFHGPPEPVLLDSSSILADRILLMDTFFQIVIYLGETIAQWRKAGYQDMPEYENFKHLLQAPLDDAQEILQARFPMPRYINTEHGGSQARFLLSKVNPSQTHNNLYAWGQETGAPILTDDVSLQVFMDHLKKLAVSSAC
# UniProt Q15475: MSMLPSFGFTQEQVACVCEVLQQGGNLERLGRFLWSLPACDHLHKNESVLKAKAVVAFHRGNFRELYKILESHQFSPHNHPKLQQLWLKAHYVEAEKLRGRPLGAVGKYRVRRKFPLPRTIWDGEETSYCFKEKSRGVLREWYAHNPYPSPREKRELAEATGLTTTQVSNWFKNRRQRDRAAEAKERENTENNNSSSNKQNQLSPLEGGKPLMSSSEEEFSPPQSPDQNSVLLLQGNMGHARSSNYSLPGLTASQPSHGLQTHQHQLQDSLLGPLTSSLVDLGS
# UniProt Q15067: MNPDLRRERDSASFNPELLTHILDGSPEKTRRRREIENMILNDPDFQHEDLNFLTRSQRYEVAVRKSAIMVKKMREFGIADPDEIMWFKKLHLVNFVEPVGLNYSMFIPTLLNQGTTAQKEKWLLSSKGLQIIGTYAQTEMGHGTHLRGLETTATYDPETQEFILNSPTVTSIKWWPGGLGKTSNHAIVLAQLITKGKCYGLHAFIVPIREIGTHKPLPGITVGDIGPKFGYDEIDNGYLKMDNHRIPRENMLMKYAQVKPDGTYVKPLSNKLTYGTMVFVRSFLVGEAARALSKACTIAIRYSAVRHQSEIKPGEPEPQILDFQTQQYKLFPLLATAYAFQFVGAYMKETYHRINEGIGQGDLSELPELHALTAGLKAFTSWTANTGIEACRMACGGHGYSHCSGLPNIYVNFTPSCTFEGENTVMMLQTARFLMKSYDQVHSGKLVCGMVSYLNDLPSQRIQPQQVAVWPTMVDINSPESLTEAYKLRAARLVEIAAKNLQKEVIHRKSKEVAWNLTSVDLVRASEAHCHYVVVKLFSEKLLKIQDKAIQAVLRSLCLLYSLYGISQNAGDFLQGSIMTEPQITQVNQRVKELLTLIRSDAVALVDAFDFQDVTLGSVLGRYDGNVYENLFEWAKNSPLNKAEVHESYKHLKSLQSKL
# UniProt Q15427: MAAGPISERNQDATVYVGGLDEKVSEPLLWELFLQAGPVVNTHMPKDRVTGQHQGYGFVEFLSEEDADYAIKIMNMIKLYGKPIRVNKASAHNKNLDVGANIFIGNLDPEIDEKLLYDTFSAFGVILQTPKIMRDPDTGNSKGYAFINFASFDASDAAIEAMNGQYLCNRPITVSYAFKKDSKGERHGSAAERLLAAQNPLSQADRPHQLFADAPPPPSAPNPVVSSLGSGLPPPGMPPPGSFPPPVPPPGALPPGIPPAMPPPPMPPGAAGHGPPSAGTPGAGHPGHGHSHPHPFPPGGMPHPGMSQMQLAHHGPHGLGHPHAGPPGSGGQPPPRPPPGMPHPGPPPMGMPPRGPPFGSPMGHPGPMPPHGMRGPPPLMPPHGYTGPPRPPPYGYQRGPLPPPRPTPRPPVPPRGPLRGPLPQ
# UniProt Q15723: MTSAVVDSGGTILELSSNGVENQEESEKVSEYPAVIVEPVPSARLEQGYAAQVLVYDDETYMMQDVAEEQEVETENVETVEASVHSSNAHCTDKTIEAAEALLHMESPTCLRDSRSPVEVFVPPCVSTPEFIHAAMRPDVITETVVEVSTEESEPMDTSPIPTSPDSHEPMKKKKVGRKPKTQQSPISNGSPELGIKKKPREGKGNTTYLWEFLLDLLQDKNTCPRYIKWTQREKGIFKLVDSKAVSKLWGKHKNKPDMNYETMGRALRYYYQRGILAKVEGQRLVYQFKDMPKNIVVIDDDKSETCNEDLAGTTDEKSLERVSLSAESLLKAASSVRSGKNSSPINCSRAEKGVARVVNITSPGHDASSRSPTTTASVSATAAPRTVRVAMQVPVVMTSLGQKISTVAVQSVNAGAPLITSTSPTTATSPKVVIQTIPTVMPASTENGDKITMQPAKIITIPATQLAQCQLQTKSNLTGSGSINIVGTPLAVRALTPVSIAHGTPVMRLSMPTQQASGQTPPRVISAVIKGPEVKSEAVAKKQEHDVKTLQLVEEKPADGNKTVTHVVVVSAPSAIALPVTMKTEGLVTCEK
# UniProt Q15424: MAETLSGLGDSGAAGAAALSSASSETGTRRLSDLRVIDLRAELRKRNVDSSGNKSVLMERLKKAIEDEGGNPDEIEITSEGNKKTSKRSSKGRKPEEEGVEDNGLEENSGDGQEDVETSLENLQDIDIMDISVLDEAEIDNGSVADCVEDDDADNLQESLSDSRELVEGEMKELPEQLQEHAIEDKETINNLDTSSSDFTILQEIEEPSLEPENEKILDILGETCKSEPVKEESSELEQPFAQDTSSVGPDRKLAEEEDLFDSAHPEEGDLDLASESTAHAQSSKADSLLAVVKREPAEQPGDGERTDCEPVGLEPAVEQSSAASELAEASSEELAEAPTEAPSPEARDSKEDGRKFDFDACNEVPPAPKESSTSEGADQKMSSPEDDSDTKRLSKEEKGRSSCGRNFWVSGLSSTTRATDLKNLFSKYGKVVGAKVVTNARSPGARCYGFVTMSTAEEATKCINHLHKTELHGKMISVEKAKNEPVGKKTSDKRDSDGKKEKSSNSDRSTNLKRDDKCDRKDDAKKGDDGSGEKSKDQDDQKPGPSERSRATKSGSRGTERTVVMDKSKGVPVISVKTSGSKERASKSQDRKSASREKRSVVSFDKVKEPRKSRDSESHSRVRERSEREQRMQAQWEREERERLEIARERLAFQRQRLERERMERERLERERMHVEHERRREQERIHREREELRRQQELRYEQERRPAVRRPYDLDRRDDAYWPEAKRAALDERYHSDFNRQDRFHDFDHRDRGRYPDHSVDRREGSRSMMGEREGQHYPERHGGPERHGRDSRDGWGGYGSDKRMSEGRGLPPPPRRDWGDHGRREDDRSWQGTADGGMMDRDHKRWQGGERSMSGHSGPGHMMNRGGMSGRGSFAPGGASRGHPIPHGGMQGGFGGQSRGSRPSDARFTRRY
# Compound: COC(=O)C#Cc1ccccc1 [methyl 3-phenylpropiolate]
# Assay: log2 ratio of iodoacetamide-alkyne labeling of the cysteine site, DMSO over compound (competition); higher = stronger covalent engagement of the cysteine by the compound, active = 1 or more
# Conditions: 500 µM; treatment time 1 h; system: HEK293T cell lysate
# Method in brief: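 Reporter intensities give each cysteine's log2 competition ratio as the mean of control channels over the mean of compound channels. The samples were HEK293T lysate (2 mg/mL) given vehicle or electrophile (500 µM, 1 h, ambient temperature), then iodoacetamide alkyne (1 h), followed by click coupling to sCIP-TMT reagents, pooling, trypsin digestion overnight at 37 °C, streptavidin enrichment, acid elution, Orbitrap Eclipse LC-MS/MS with FAIMS and FragPipe quantification. Duplicate channels and three replicates were run, and cysteines quantified in only one replicate were discarded.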
row,Target,log2 ratio of iodoacetamide-alkyne labeling
1,RABEP1 C536 (UniProt Q15276),inactive: 0.143
2,DLGAP5 C592 (UniProt Q15398),inactive: 0.483
3,PDS5A C1116 (UniProt Q29RF7),inactive: 0.182
4,EEA1 C1299 (UniProt Q15075),inactive: 0.315
5,PDS5A C532 (UniProt Q29RF7),inactive: 0.537
6,INF2 C971 (UniProt Q27J81),inactive: 0.608
7,HNRNPUL2 C408 (UniProt Q1KMD3),inactive: 0.159
8,UniProt Q15208_C9,inactive: 0.465
9,SEC23B C434 (UniProt Q15437),inactive: 0.262
10,UniProt Q15365_C293,inactive: 0.11
11,UniProt Q15475_C130,inactive: 0.571
12,NCAPD2 C816 (UniProt Q15021),inactive: 0.11
13,EIF4H C85 (UniProt Q15056),inactive: 0.25
14,UniProt Q15631_C225,inactive: 0.308
15,ACOX1 C449 (UniProt Q15067),inactive: 0.174
16,UniProt Q15370_C89,inactive: -0.341
17,IAH1 C9 (UniProt Q2TAA2),active: 2.43
18,TXNRD1 C209 (UniProt Q16881),inactive: -0.0684
19,EFTUD2 C148 (UniProt Q15029),inactive: 0.297

row,Target,log2 ratio of iodoacetamide-alkyne labeling
1,SF3B4 C168 (UniProt Q15427),inactive: -0.0894
2,PPA1 C270 (UniProt Q15181),inactive: 0.153
3,CEP55 C159 (UniProt Q53EZ4),inactive: -0.0249
4,SF3B3 C1054 (UniProt Q15393),inactive: 0.292
5,GUK1 C98 (UniProt Q16774),inactive: -0.209
6,PTGES3 C58 (UniProt Q15185),inactive: 0.356
7,SF1 C282 (UniProt Q15637),inactive: 0.123
8,PDS5A C93 (UniProt Q29RF7),inactive: -0.0722
9,GEN1 C668 (UniProt Q17RS7),inactive: 0.0186
10,CSRP2 C58 (UniProt Q16527),inactive: 0.175
11,HNRNPUL2 C452 (UniProt Q1KMD3),inactive: -0.0936
12,RASA2 C314 (UniProt Q15283),inactive: -0.00025
13,ELF2 C470 (UniProt Q15723),inactive: 0.626
14,SAFB C448 (UniProt Q15424),inactive: 0.229
15,CDK10 C8 (UniProt Q15131),inactive: 0.447
16,UniProt Q15042_C678,inactive: 0.105
17,UBE3C C252 (UniProt Q15386),inactive: 0.306
18,PDS5A C92 (UniProt Q29RF7),inactive: -0.0722

# Laid out differently: results already given
row	Target	log2 ratio of iodoacetamide-alkyne labeling
1	SF3B4 C168 (UniProt Q15427)	inactive: -0.0894
4	SF3B3 C1054 (UniProt Q15393)	inactive: 0.292
7	SF1 C282 (UniProt Q15637)	inactive: 0.123
11	HNRNPUL2 C452 (UniProt Q1KMD3)	inactive: -0.0936
12	RASA2 C314 (UniProt Q15283)	inactive: -0.00025
13	ELF2 C470 (UniProt Q15723)	inactive: 0.626
16	UniProt Q15042_C678	inactive: 0.105
18	PDS5A C92 (UniProt Q29RF7)	inactive: -0.0722

# — the supplement of paper PMC11006884
